Among the data in PubChem BioAssay AID330 (DTP/NCI, 2004) are survivor count and T/C values, retold here.

The test system of the experiment is P388 leukemia ip, CD2F1 mice, survival T/C. As to the kind of experiment: NCI In Vivo Anticancer Drug Screen. Data for tumor model P388 Leukemia (intraperitoneal) in CD2F1 (CDF1) mice. The conditions noted are these: T/C endpoint: median survival time, higher T/C = longer survival.
Where [1] appears, read: dose: 50.0 mg/kg/injection, schedule: Q01DX009 (ip), vehicle: saline.
[2] abbreviates: dose: 100.0 mg/kg/injection, schedule: Q01DX009 (ip), vehicle: saline.
Where [3] appears, read: dose: 200.0 mg/kg/injection, schedule: Q01DX009 (ip), vehicle: saline.
The mark [4] stands for this setting: dose: 50.0 mg/kg/injection, schedule: Q01DX009 (ip), vehicle: Klucel (hydroxypropylcellulose) (HPC).
Where [5] appears, read: dose: 100.0 mg/kg/injection, schedule: Q01DX009 (ip), vehicle: Klucel (hydroxypropylcellulose) (HPC).
[6] abbreviates: dose: 200.0 mg/kg/injection, schedule: Q01DX009 (ip), vehicle: Klucel (hydroxypropylcellulose) (HPC).
Setting [7] is: dose: 200.0 mg/kg/injection, schedule: Q01DX005 (ip), vehicle: saline with Tween-80.
Setting [8] is: dose: 400.0 mg/kg/injection, schedule: Q01DX009 (ip), vehicle: saline with Tween-80.
Setting [9] is: dose: 7.5 mg/kg/injection, schedule: Q01DX005 (ip), vehicle: Klucel (hydroxypropylcellulose) (HPC).
Where [10] appears, read: dose: 15.0 mg/kg/injection, schedule: Q01DX005 (ip), vehicle: Klucel (hydroxypropylcellulose) (HPC).
Setting [11] is: dose: 60.0 mg/kg/injection, schedule: Q01DX005 (ip), vehicle: Klucel (hydroxypropylcellulose) (HPC).
[12] abbreviates: dose: 120.0 mg/kg/injection, schedule: Q01DX005 (ip), vehicle: Klucel (hydroxypropylcellulose) (HPC).
The mark [13] stands for this setting: dose: 240.0 mg/kg/injection, schedule: Q01DX005 (ip), vehicle: Klucel (hydroxypropylcellulose) (HPC).
The mark [14] stands for this setting: dose: 50.0 mg/kg/injection, schedule: Q01DX009 (ip), vehicle: saline with Tween-80.
Setting [15] is: dose: 400.0 mg/kg/injection, schedule: Q04DX002 (ip), vehicle: Klucel (hydroxypropylcellulose) (HPC).

The list is a part of this screen's results and no random one: it gathers tests that were run many times, whatever their T/C, doses with no T/C, and many T/C values between a quarter and a half above the control. Further doses and runs are listed elsewhere. T/C: endpoint of the treated group in % of that of the vehicle group. Some doses have a count of surviving animals in place of a T/C: the source holds a T/C of zero for them, seemingly a mark for toxic or unscored doses. Some doses without a T/C left all or most animals alive at the check, yet need not have been tolerated: the source hardly ever lists a survival T/C far under the control, and the zero likely stands for such cases as well. Counts of survivors are from the toxicity check (mostly the fifth day) where no day follows; animals may have died later. Schedules are NCI's codes, taken here to give the interval after Q, in days (D) or hours (H), and the number of doses after X. Some doses were run more than once; the results are listed from low to high. Where survival is the endpoint, this PubChem deposit counts one and a half times the control or more as active, and values a quarter to a half above the control carry no call in these data; other NCI protocols may use other cut-offs.

As for `COc1cc(CCN(C)C)c([N+](=O)[O-])cc1OC`, the survivor count reads like this: under setting [1], 0 of 6; under setting [2], 0 of 6; under setting [3], 0 of 6.

With `CC(=O)/C(=C\c1ccccc1F)C(=O)CCN(C)C`, the survivor count (dose: 240.0 mg/kg/injection, schedule: Q01DX005 (ip), vehicle: saline) is on record as 3 of 6.

Regarding `O=C1NC(=O)N(c2ccc([N+](=O)[O-])cc2)C1=O`, the survivor count is, setting by setting: under setting [4], 6 of 6; under setting [5], 6 of 6.

For the compound `CN(C(=O)c1ccc(N)cc1)C1CCN(C2CCCCC2)C1` (stereo not given), under setting [6], the survivor count is given as 1 of 6.

With `C=CCCC/C=C/CN1CCOCC1`, the survivor count under setting [3] was 6 of 6.

On to `COC(=O)C1=C(C(=O)OC)C2C=CC1C(=O)N2/C=C/c1ccccc1` (stereo not given), for which the T/C (dose: 200.0 mg/kg/injection, schedule: Q04DX003 (ip), vehicle: saline with Tween-80) was 126 % of control.

As to `CC1=NOC(=O)/C1=C/c1ccccc1C`, under setting [7], the survivor count was 0 of 6.

Regarding `CCOC(=O)c1ccc[nH]1`, the survivor count under setting [8] is 1 of 6.

`COc1ccc(CCN2CCC(CC3CCCCN3)CC2)cc1OC` (stereo not given): the survivor count (dose: 200.0 mg/kg/injection, schedule: Q01DX009 (ip), vehicle: distilled water + alcohol) is listed as 3 of 6.

On to `CCCCOc1cc(C(=O)NCCN(C)C)c2ccccc2n1`, for which the survivor count is 0 of 6 (dose: 60.0 mg/kg/injection, schedule: Q01DX005 (ip), vehicle: saline with Tween-80); 0 of 6 (dose: 120.0 mg/kg/injection, schedule: Q01DX005 (ip), vehicle: saline with Tween-80); 0 of 6 (dose: 240.0 mg/kg/injection, schedule: Q01DX005 (ip), vehicle: saline with Tween-80).

For the compound `C=CCOC(=O)C12CCC(C)(C)CC1C1=CCC3C4(C)CCC(O)C(C)(CO)C4CCC3(C)C1(C)CC2` (stereo not given), the survivor count is, setting by setting: (dose: 25.0 mg/kg/injection, schedule: Q01DX005 (ip), vehicle: saline with Tween-80) 6 of 6; (dose: 50.0 mg/kg/injection, schedule: Q01DX005 (ip), vehicle: saline with Tween-80) 6 of 6; (dose: 100.0 mg/kg/injection, schedule: Q01DX005 (ip), vehicle: saline with Tween-80) 6 of 6; under setting [7], 6 of 6.

On to `c1ccc2c(NCCCN3CCN(CCCNc4c5ccccc5nc5ccccc45)CC3)c3ccccc3nc2c1`, for which the T/C reads like this: (dose: 3.75 mg/kg/injection, schedule: Q01DX005 (ip), vehicle: Klucel (hydroxypropylcellulose) (HPC)) 130 % of control; under setting [9], 127 and 130 % of control. The survivor count reads like this: under setting [10], 5 of 6; (dose: 30.0 mg/kg/injection, schedule: Q01DX005 (ip), vehicle: Klucel (hydroxypropylcellulose) (HPC)) 5 of 6; under setting [11], 3 of 6; under setting [12], 0 of 6; under setting [13], 0 of 6.

For the compound `CC(=O)c1cc(I)c(O)c2ncccc12`, the survivor count under setting [14] is listed as 0 of 6.

Consider `[O-][N+]12CCCCC1C1CC(C2)C2CCCC(c3ccccc3)N2C1` (stereo not given), for which the T/C under setting [4] is given as 97, 102, 124, 126 % of control. The survivor count is 1 of 6 and 3 of 6 under setting [5]; 0 of 6 under setting [6].

In the case of `Cc1cccc2c(/C=C/c3ccc(N(C)C)cc3)ccnc12`, the survivor count under setting [5] is 6 of 6.

For `COC(=S)SCN(CSC(=S)OC)c1ccccc1Cl`, the T/C is 131 % of control (dose: 264.0 mg/kg/injection, schedule: Q01DX009 (ip), vehicle: saline with Tween-80); 127 % of control under setting [8]; 140 % of control (dose: 600.0 mg/kg/injection, schedule: Q01DX009 (ip), vehicle: saline with Tween-80).

With `CC1(C)OI(O)c2ccccc21`, the survivor count under setting [15] is 0 of 6.

Consider `O=C(c1cc(Cl)c(Cl)c([N+](=O)[O-])c1Cl)C(Cl)Cl`, for which the survivor count reads like this: (dose: 100.0 mg/kg/injection, schedule: Q04DX003 (ip), vehicle: Klucel (hydroxypropylcellulose) (HPC)) 6 of 6; (dose: 200.0 mg/kg/injection, schedule: Q04DX003 (ip), vehicle: Klucel (hydroxypropylcellulose) (HPC)) 4 of 6; (dose: 400.0 mg/kg/injection, schedule: Q04DX003 (ip), vehicle: Klucel (hydroxypropylcellulose) (HPC)) 2 of 6.

With `C=Cn1c([N+](=O)[O-])cnc1/C=C/c1ccc(C(=O)OCCN(CC)CC)cc1`, the survivor count under setting [15] is listed as 0 of 5.

Turning to `CCC[CH2][Sn]([CH2]CCC)([CH2]CCC)[CH2]CC[N+](C)(C)C`, the survivor count by setting is: (dose: 6.25 mg/kg/injection, schedule: Q01DX009 (ip), vehicle: saline) 3 of 6; (dose: 12.5 mg/kg/injection, schedule: Q01DX009 (ip), vehicle: saline) 3 of 6; (dose: 25.0 mg/kg/injection, schedule: Q01DX009 (ip), vehicle: saline) 0 of 6; under setting [1], 0 of 6; under setting [2], 0 of 6; under setting [3], 0 of 6.

As for `[CH3][Ge]([CH3])[c]1ccccc1`, the survivor count under setting [3] was 0 of 6.

Consider `CCC[CH2][Sn]([CH2]CCC)[S]CC(N)C(=O)O` (stereo not given), for which the survivor count is, setting by setting: (dose: 1.87 mg/kg/injection, schedule: Q01DX005 (ip), vehicle: Klucel (hydroxypropylcellulose) (HPC)) 3 of 6; under setting [9], 3 of 6; under setting [10], 0 of 6; under setting [11], 0 of 6; under setting [12], 0 of 6; under setting [13], 0 of 6.

`COC(=O)CNP(=O)(NCC(=O)OC)N(CCCl)CCCl`: the T/C (dose: 60.0 mg/kg/injection, schedule: Q01DX005 (ip), vehicle: saline) is 130 % of control.

For the compound `CCN(CC)CCNc1ccc(C)c2sc3ccc(N)cc3c(=O)c12`, under setting [14], the T/C is 138 % of control. Also, the survivor count is reported as 6 of 6 (dose: 100.0 mg/kg/injection, schedule: Q01DX009 (ip), vehicle: saline with Tween-80) and 2 of 6 (dose: 200.0 mg/kg/injection, schedule: Q01DX009 (ip), vehicle: saline with Tween-80).

`C=C(C)C(=O)OC1CC2(C)OC2CCC2(C)OC2C2OC(=O)C(=C)C12` (stereo not given): the survivor count (dose: 80.0 mg/kg/injection, schedule: Q01DX005 (ip), vehicle: Klucel (hydroxypropylcellulose) (HPC)) was 0 of 6.

For the compound `C/C(=N\Nc1cc(C)nc2cc3c(cc12)OCO3)c1cn(C)n(-c2ccccc2)c1=O`, the survivor count (dose: 200.0 mg/kg/injection, schedule: Q01DX005 (ip), vehicle: Klucel (hydroxypropylcellulose) (HPC)) is 2 of 6.

As for `O=C1OCCOCCOCCOC(=O)c2ccccc2SSc2ccccc21`, the survivor count (dose: 400.0 mg/kg/injection, schedule: Q01DX001 (ip), vehicle: saline with Tween-80) is recorded as 6 of 6.

Take `Cn1nnc(-c2cccc(F)c2)n1`: the survivor count (dose: 100.0 mg/kg/injection, schedule: Q01DX005 (ip), vehicle: Klucel (hydroxypropylcellulose) (HPC)) was 5 of 5.

Turning to `Cc1cc[n+]2cc(-c3ccc(/C=N/N=C(N)N)cc3)n(C)c2c1`, the survivor count (dose: 12.5 mg/kg/injection, schedule: Q01DX005 (ip), vehicle: Klucel (hydroxypropylcellulose) (HPC)) is given as 3 of 6 and the survivor count (dose: 25.0 mg/kg/injection, schedule: Q01DX005 (ip), vehicle: Klucel (hydroxypropylcellulose) (HPC)) is recorded as 0 of 6.

With `O=C1OC(c2ccccc2)=C(Cl)C(Cc2ccccc2)(Cc2ccccc2)C1Cl` (stereo not given), the survivor count (dose: 100.0 mg/kg/injection, schedule: Q04DX002 (ip), vehicle: Klucel (hydroxypropylcellulose) (HPC)) is given as 6 of 6; the survivor count (dose: 200.0 mg/kg/injection, schedule: Q04DX002 (ip), vehicle: Klucel (hydroxypropylcellulose) (HPC)) is on record as 6 of 6; the survivor count under setting [15] is 5 of 5.
